Test results as given in paper PMC6791870, “Switch of the interactions between the ribosomal stalk and EF1A in the GTP- and GDP-bound conformations” (Scientific Reports, 2019).

Target: Aeropyrum pernix aP1 lacking the C-terminal F111 (ApeP1 ΔF111) (Aeropyrum pernix)
Assay: native gel or EMSA; ApeP1 WT or ∆F111 (200 pmol) incubated with 100, 200 and 400 pmol of ApeEF1A•GTP; Native-PAGE as in Nomura et al., 2012; Coomassie staining; both purified

binding: binds
B1: Aeropyrum pernix elongation factor aEF1A (ApeEF1A), GTP-bound form (protein, UniProt Q9YAV0 1-437)
chain: MAEKPHMNLVVIGHVDHGKSTLVGHLLYRLGYIEEKKLKELEEQAKSRGKESFKFAWILDKMKEERERGITIDLTFMKFETKKYVFTIIDAPGHRDFVKNMITGASQADAAILVVSARKGEFEAGMSTEGQTREHLLLARTMGIEQIIVAVNKMDAPDVNYDQKRYEFVVSVLKKFMKGLGYQVDKIPFIPVSAWKGDNLIERSPNMPWYNGPTLVEALDQLQPPAKPVDKPLRIPVQNVYSIPGAGTVPVGRVETGVLRVGDKVVFMPPGVVGEVRSIEMHYQQLQQAEPGDNIGFAVRGVSKSDIKRGDVAGHLDKPPTVAEEFEARIFVIWHPSAITVGYTPVIHVHTASVSSRIIEIKAKLDPKTGQVVEQNPQFLKAGDAAIVRFKPVKPLVVEKFSEIPQLGRFAMRDMNRTVGIGIVTDVKPAKVDIKAK

No constants are given. Whether binding was seen depends on the method and setting. A result given as binding can be weak or reduced; the word gives no strength.
